Reference: patent publication US6831079B1, “Vasopressin agonist formulation and process” (American Cyanamid Company, priority 1999, dated 2004)
At least one structure is not confirmed: it was looked up by name or label, or the drawing left a doubt.

Sequences of proteins named here, by UniProt entry; tags and fusion partners are left off.
UniProt Q00788, whole entry: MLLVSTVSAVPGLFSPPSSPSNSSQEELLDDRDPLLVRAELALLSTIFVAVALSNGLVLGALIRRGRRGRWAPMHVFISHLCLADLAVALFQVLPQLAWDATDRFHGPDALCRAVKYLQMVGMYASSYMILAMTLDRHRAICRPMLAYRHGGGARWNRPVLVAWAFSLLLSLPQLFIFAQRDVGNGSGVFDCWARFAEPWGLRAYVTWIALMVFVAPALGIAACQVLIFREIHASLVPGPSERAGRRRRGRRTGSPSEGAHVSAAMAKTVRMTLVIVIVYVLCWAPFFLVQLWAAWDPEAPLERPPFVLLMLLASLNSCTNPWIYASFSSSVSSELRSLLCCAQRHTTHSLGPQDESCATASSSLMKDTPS

Biological target: Vasopressin V2 (Rattus norvegicus, UniProt Q00788)
Assay: Vasopressin V2 agonist effects in normal conscious water-loaded rats
Type: in vivo
Set-up: from tissue; host or cells: whole living Sprague-Dawley rat; the receptor is the animal's own (renal, by own knowledge)
Details: Sprague-Dawley (CD) rats, 10 mg/kg oral
Source text: Vasopressin V2 Agonist Effects of Test Compounds in Normal Conscious Water-loaded Rats
Male or female normotensive Sprague-Dawley rats (Charles River Laboratories, Inc., Kingston, N.Y.) of 350-500 g body weight were supplied with standard rodent diet (Purina Rodent Lab. Chow 5001) and water ad libitum. On the day of test, rats were placed individually into metabolic cages equipped with devices to separate the feces from the urine and containers for collection of urine. […] The vehicle used was 20% dimethylsulfoxide (DMSO) in 2.5% preboiled corn starch. Thirty minutes after dosing the test compound, rats were gavaged with water at 30 ml/kg into the stomach using a feeding needle. During the test, rats were not provided with water or food. Urine was collected for four hours after dosing of the test compound. At the end of four hours, urine volume was measured. Urinary osmolality was determined using a Fiske One-Ten Osmometer (Fiske Associates, Norwood, Mass., 02062) or an Advanced CRYOMATIC Osmometer, Model 3C.2 (Advanced Instruments, Norwood, Mass.). Determinations of Na^+, K^+ and Cl^− ion were carried out using ion specific electrodes in a Beckman SYNCHRON EL-ISE Electrolyte System analyzer. The urinary osmolality should increase proportionally. In the screening test, two rats were used for each compound. […]

O=C(c1ccc(-n2ccnc2)cc1)N1Cc2cccn2Cc2ccccc21 [Example 63, [4-(Imidazol-1-yl)-phenyl]-(5H,11H-pyrrolo[2,1-c][1,4]benzodiazepin-10-yl)-methanone]
Osmolality (% Increase) (change in osmolality as percent of control): 214%
Urine Volume (% decrease) (vs. control, urine collected four hours): 27%
